Experimental data: PubChem BioAssay AID1259308 (NCATS, 2017)
Test: 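Genes whose loss raises luciferase production in HEK293 cells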 (primary screen). Cells: human HEK293 embryonic kidney cells stably expressing firefly luciferase (HEK-CMV-Luc2-Hygro). Reagents: single siRNA against human genes, 0.8 pmol siRNA per well. Time to read-out: 72 h. Measurement: 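Reporter luminescence and viable-cell signal on separate replicate plates, given as percent of non-targeting control and median/MAD z-scores, plus per-cell luciferase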. Reading the numbers: total luciferase, z-score: higher = more reporter protein produced. Rule for the call: 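Active when the median/MAD z-score for overall luciferase is greater than 3; a gene was taken forward for validation with new siRNAs if at least two of its three siRNAs passed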. Meaning of the calls: active = raised luciferase; inactive = no rise.
Here is an unselected part of about 59,000 reagents. About 1,510 of all reagents (2.6%) count as active. 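Calls use total luciferase alone and ignore viability, so some active siRNAs may act by altering cell number.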 The numbers tell different reagents against one gene apart. Not all columns of the deposit are shown.

gene symbol | reagent no. | total luciferase, z-score | activity call
LRRC55 | 1 | 1.67 | inactive
LRRC55 | 2 | -0.482 | inactive
LRRC55 | 3 | -0.863 | inactive
FUNDC1 | 1 | 0.553 | inactive
FUNDC1 | 2 | 0.0482 | inactive
FUNDC1 | 3 | -0.0674 | inactive
CLCN5 | 1 | -0.228 | inactive
CLCN5 | 2 | 3.69 | active
CLCN5 | 3 | -0.818 | inactive
MRPL21 | 1 | 2.02 | inactive
MRPL21 | 2 | 0.102 | inactive
MRPL21 | 3 | 0.576 | inactive
NDUFB10 | 1 | 0.287 | inactive
NDUFB10 | 2 | 0.417 | inactive
NDUFB10 | 3 | 0.326 | inactive
HYCC1 | 1 | 0.845 | inactive
HYCC1 | 2 | -0.453 | inactive
HYCC1 | 3 | -0.105 | inactive
MINDY2 | 1 | -2.4 | inactive
MINDY2 | 2 | -1.35 | inactive
MINDY2 | 3 | 0.234 | inactive
POT1 | 1 | 0.0221 | inactive
POT1 | 2 | -0.397 | inactive
POT1 | 3 | 0.315 | inactive
MAP7 | 1 | -0.193 | inactive
MAP7 | 2 | 0.593 | inactive
MAP7 | 3 | 0.278 | inactive
MYO1C | 1 | 0.0376 | inactive
MYO1C | 2 | 0.0731 | inactive
MYO1C | 3 | -0.159 | inactive
DCAF17 | 1 | 1.22 | inactive
DCAF17 | 2 | -0.792 | inactive
DCAF17 | 3 | -0.814 | inactive
GLIPR1L1 | 1 | 0.477 | inactive
GLIPR1L1 | 2 | 1.08 | inactive
GLIPR1L1 | 3 | 0.145 | inactive

A stretch taken from the entries so far, as a working copy:
gene symbol | reagent no. | total luciferase, z-score | activity call
NDUFB10 | 1 | 0.287 | inactive
NDUFB10 | 2 | 0.417 | inactive
NDUFB10 | 3 | 0.326 | inactive
HYCC1 | 1 | 0.845 | inactive
HYCC1 | 2 | -0.453 | inactive
HYCC1 | 3 | -0.105 | inactive
MINDY2 | 1 | -2.4 | inactive

Additional entries:
gene symbol | reagent no. | total luciferase, z-score | activity call
PSMA6P2 | 1 | -0.83 | inactive
PSMA6P2 | 2 | -0.295 | inactive
PSMA6P2 | 3 | -0.297 | inactive
PGLYRP3 | 1 | 0.993 | inactive
PGLYRP3 | 2 | -0.408 | inactive
PGLYRP3 | 3 | -1.03 | inactive
CERS5 | 1 | -0.439 | inactive
CERS5 | 2 | 0.924 | inactive
CERS5 | 3 | -0.488 | inactive
SULT1A4 | 1 | 0.603 | inactive
SULT1A4 | 2 | -0.703 | inactive
SULT1A4 | 3 | 3.17 | active
GRM5 | 1 | -0.786 | inactive
GRM5 | 2 | -1.56 | inactive
GRM5 | 3 | 0.588 | inactive
AGBL2 | 1 | 0.116 | inactive
AGBL2 | 2 | -1.48 | inactive
AGBL2 | 3 | -0.301 | inactive
GPSM2 | 1 | 1.16 | inactive
GPSM2 | 2 | -0.773 | inactive
GPSM2 | 3 | -0.704 | inactive
